We go through 48 compounds from the supplement of paper PMC7024190.

Where a name gives a salt, the structure may show the parent alone. The list shows a part of the results. This data set is noisy: repeats of one test often differ as much as different tests do.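 The cells were human embryonic kidney cells carrying a Renilla luciferase gene, driven by the HSV-TK promoter, on a plasmid put in briefly by transfection. This is the first-round screen of about ten thousand compounds, looking for ones that raise reporter output.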

The test system of the experiment is HEK 293FT. The experiment is described as follows: log relative Renilla luciferase luminescence (reporter expression vs reference, reference not stated) (log (base not stated)); higher = higher recombinant reporter expression. The conditions noted are these: 10 µM; time after transfection 48 h.
As to `CCN(CC)CCNC(=O)COc1ccc(OC)cc1` [mefexamide hydrochloride], the log was -0.0648.

As to `Cc1nc2n(c(=O)c1CCN1CCC(c3noc4cc(F)ccc34)CC1)CCCC2O` (stereo not drawn) [paliperidone], the log was -0.544.

Regarding `CC(=O)OCC1=C(C(=O)O)N2C(=O)[C@@H](NC(=O)Cc3cccs3)[C@H]2SC1` [cephalothin sodium], the log is -0.0535.

With `CCOc1ccc(NC(=O)CC(C)O)cc1` (stereo not drawn) [bucetin], the log came to 0.102.

For `COc1c(O)cc2oc3cc(O)c(CC=C(C)C)c(O)c3c(=O)c2c1CC=C(C)C` [alpha-mangostin], the log is -1.47.

Take `C=CCCCCCCCCC(=O)O` [undecylenic acid]: the log is 0.0621.

With `COC(=O)C[C@H]1C(C)(C)[C@@H](OC(C)=O)[C@@H]2CC3C4CC(=O)O[C@@H](c5ccoc5)[C@]4(C)CCC3[C@@]1(C)C2=O` (stereo partly drawn) [dihydrofissinolide], the log was 0.00801.

In the case of `CC1(C)S[C@@H]2[C@H](NC(=O)Cc3ccccc3)C(=O)N2[C@H]1C(=O)O` [penicillin g potassium], the log is -0.172.

As for `CCCCc1nc(Cl)c(CO)n1Cc1ccc(-c2ccccc2-c2nnn[nH]2)cc1` [losartan], the log is -0.0157.

Consider `O=C1CCC(N2C(=O)c3ccccc3C2=O)C(=O)N1` (stereo not drawn) [thalidomide], for which the log stood at 0.149.

As to `CC1(C)C[C@@H]2C(=O)CC[C@H]3O[C@]3(C)CC[C@H]21` [kobusone], the log is 0.00486.

`CC[n+]1c(-c2ccccc2)c2cc(N)ccc2c2ccc(N)cc21` [homidium bromide]: the log is 0.182.

For `O=C1OC(CN2CCOCC2)CN1/N=C/c1ccc([N+](=O)[O-])o1` (stereo not drawn) [furaltadone], the log was -0.147.

`CNCCCN1c2ccccc2CCc2ccccc21` [desipramine hydrochloride]: the log came to 0.0238.

Turning to `O=C(O)[C@]1(O)C[C@@H](O)[C@@H](O)[C@H](O)C1` [quinic acid], the log amounted to 0.116.

On to `O=C(O)CCNC(=O)c1ccc(/N=N/c2ccc(O)c(C(=O)O)c2)cc1` [balsalazide disodium], for which the log came out at 0.0257.

As for `C[n+]1ccccc1/C=N/O` [pralidoxime chloride], the log amounted to 0.0658.

On to `CCC(C)n1ncn(-c2ccc(N3CCN(c4ccc(OCC5COC(Cn6cncn6)(c6ccc(Cl)cc6Cl)O5)cc4)CC3)cc2)c1=O` (stereo not drawn) [itraconazole], for which the log is -0.196.

In the case of `COc1ccc(/C=C/C(=O)c2cc(O)ccc2O)cc1` [2',5'-dihydroxy-4-methoxychalcone], the log is -0.0152.

On to `Cc1cccc(Nc2ccccc2C(=O)O)c1C` [mefenamic acid], for which the log was -0.0732.

`C=CCSCC=C` [diallyl sulfide]: the log was -0.0856.

As for `CC(N)C(=O)OC(C)(C)Cc1ccc(Cl)cc1` (stereo not drawn) [alaproclate], the log is 0.193.

For the compound `C[C@H]1[C@H](OC(=O)CCC(=O)O)O[C@@H]2O[C@@]3(C)CC[C@H]4[C@H](C)CC[C@@H]1[C@@]24OO3` [artesunate], the log was -0.0202.

As to `CC(C)NCC(O)c1cc(O)cc(O)c1` (stereo not drawn) [metaproterenol], the log was -0.173.

For the compound `O=C(O)CN(CCN(CC(=O)O)CC(=O)O)CCN(CC(=O)O)CC(=O)O` [pentetic acid], the log came out at 0.0948.

On to `COc1ccc(-c2cc(=O)c3c(OC)c(OC)c(OC)cc3o2)cc1OC` [sinensetin], for which the log turned out to be 0.247.

Consider `C#CCN(C)CCCOc1ccc(Cl)cc1Cl` [clorgiline hydrochloride], for which the log amounted to 0.0674.

Take `COc1ccc2c(c1)O[C@H]1c3ccc(OC)cc3OC[C@@H]21` [homopterocarpin]: the log came to 0.0475.

As for `COc1ccccc1N1CCN(CCCNc2cc(=O)n(C)c(=O)n2C)CC1` [urapidil hydrochloride], the log is 0.0962.

`CC(C)CCCC(C)C1CCC2C3CCC4CC(O)CCC4(C)C3CCC12C` (stereo not drawn) [5alpha-cholestanol]: the log came out at 0.174.

Turning to `OC[C@H]1O[C@@](CO)(O[C@H]2O[C@H](CO)[C@@H](O)[C@H](O)[C@H]2O)[C@@H](O[C@H]2O[C@H](CO)[C@@H](O)[C@H](O)[C@H]2O)[C@@H]1O` [melezitose], the log is -0.101.

Take `O=C(/C=C/C=C/c1ccc2c(c1)OCO2)N1CCCCC1` [piperine]: the log was determined as 0.104.

Consider `CCC(=O)OCC(=O)[C@@]1(OC(=O)CC)[C@@H](C)C[C@H]2[C@@H]3CCC4=CC(=O)C=C[C@]4(C)[C@@]3(Cl)[C@@H](O)C[C@@]21C` [beclomethasone dipropionate], for which the log is -0.0398.

Consider `COc1ccc(-c2cc(=O)c3c(O)cc(OC)cc3o2)cc1` [apigenin dimethyl ether], for which the log is -0.147.

`CCN(CC)Cc1cc(Nc2ccnc3cc(Cl)ccc23)ccc1O` [amodiaquine dihydrochloride]: the log is -0.0185.

Turning to `CC(=O)OCC[N+](C)(C)C` [acetylcholine chloride], the log is -0.00743.

For `CC(=O)Oc1ccc(O)cc1` [4-acetoxyphenol], the log is -0.255.

With `OCCN1C[C@H](O)[C@@H](O)[C@H](O)[C@H]1CO` [miglitol], the log is -0.0451.

For the compound `CC(=O)O[C@H]1C[C@@H](OC(C)=O)C(C)(C)C2CC(=O)[C@]3(C)C(CC[C@@]4(C)[C@H](c5ccoc5)OC(=O)[C@H]5O[C@]543)[C@]21C` (stereo partly drawn) [7-deacetoxy-7-oxokhivorin], the log worked out at 0.256.

`O=C(O)c1nc2cc(Cl)c(Cl)cc2nc1O` [6,7-dichloro-3-hydroxy-2-quinoxalinecarboxylic acid]: the log amounted to 0.102.

Turning to `Cn1cnc([N+](=O)[O-])c1Sc1ncnc2[nH]cnc12` [azathioprine], the log was -0.143.

In the case of `CC(=O)Oc1cc2c(s1)CCN(C(C(=O)C1CC1)c1ccccc1F)C2` (stereo not drawn) [prasugrel], the log is 0.0492.

Regarding `CC(C)C(=O)Nc1ccc([N+](=O)[O-])c(C(F)(F)F)c1` [flutamide], the log turned out to be 0.0391.

In the case of `O=C(O)CCCC[C@@H]1SC[C@@H]2NC(=O)N[C@@H]21` [biotin], the log turned out to be 0.0616.

For the compound `CN1CCN(c2cc3c(cc2F)c(=O)c(C(=O)O)cn3-c2ccc(F)cc2)CC1` [difloxacin hydrochloride], the log came out at 0.198.

On to `C[C@@]1(O)CCOC(=O)C1` [mevalonic acid lactone], for which the log is -0.257.

As for `CC1COc2c(N3CCN(C)CC3)c(F)cc3c(=O)c(C(=O)O)cn1c23` (stereo not drawn) [ofloxacin], the log was found to be 0.0223.

Consider `C[C@H](CCC(=O)O)[C@H]1CC[C@H]2[C@@H]3CC[C@@H]4C[C@H](O)CC[C@]4(C)[C@H]3CC[C@]12C` [lithocholic acid], for which the log turned out to be 0.0426.
